# Experimental data taken from PubChem BioAssay AID2685 (National Center for Advancing Translational Sciences (NCATS), 2010).
# Among all 320,000 compounds or so, about 2,100 (0.66%) were called active. The inconclusive results got no clear call from the source; some entries with a clear call stand among them for comparison. The call rests on the fitted dose curve; in most records, active means well fitted inhibition curve with a large enough effect in the signal ratio, with a control signal flat (not every such curve was filed as active); inconclusive means small, poorly fitted or top-dose-only effect, or effect the other way, or a change in a side signal; inactive means flat fitted curve, though single readings scatter; the % refers to the signal ratio. Where the call is inconclusive, the potency comes from a doubtful curve fit.
# Assay: qHTS Assay for Lipid Storage Modulators in Drosophila S3 Cells
# Conditions: BODIPY lipid droplet fluorescence, 18-24 h, cells fed with added oleic acid; lipid storage change, negative = inhibition: at 46.1 µM (top of the series) unless noted
# Excerpt: NIH Molecular Libraries Probe Production Centers Network [MLPCN] NIH Chemical Genomics Center [NCGC] MLPCN Grant: 1 R03 MH085686-01 Assay Submitter (PI): Beller, Mathias; Max-Planck-Institut fur Biophysikalische Chemie NCGC Assay Overview: Storing lipids as a reservoir for energy or the anabolism of elementary metabolites is a common feature of probably all cells and is conserved from bacteria to humans. The universal cellular lipid storage organelle is the so-called lipid storage droplet (LD). Although ubiquitous, LDs share a simple structure composed of a hydrophobic core that harbors the storage lipids, which is shielded by a droplet-specific phospholipid monolayer to which proteins are attached. The current model of LD biogenesis involves an incorporation of the lipid core into the membrane leaflets of the endoplasmic reticulum (ER) followed by a subsequent budding-like maturation of a LD, which ultimately pinches off. Once released, LD volume can increase by localized lipogenesis or fusion of existing droplet. Storage lipids are re-mobilized enzymatically by lipase activity. Lipase regulation in the adipocyte is heavily studied and involves multiple components including catecholamine signaling, the LD-associated proteins Perilipin and comparative gene identification (CGI-58) and at least two lipases named hormone sensitive lipase (HSL) and adipocyte triglyceride lipase (ATGL). LD regulation outside of the adipocyte is poorly understood and only few components are known. However, there is an urgent need to learn more about ectopic fat depots as mislocalized storage of lipids, for example in the liver or muscle, is an eminent health problem associated with insulin resistance or the metabolic syndrome. We developed a laser-scanning cytometer assay to enable 1,536-well screening and combined the results of the small molecules screen with an RNAi database based on lipid storage.
# Triacsin C (Sigma-Aldrich T-4540), an inhibitor of long-chain fatty acyl CoA synthetase that blocks synthesis of triglycerides, was used as a positive control for lipid under-storage. A total of 23 nL of compound solution of different concentrations were transferred to the assay plates using a Kalypsys pin tool equipped with a 1,536-pin array containing 10-nL slotted pins (FP1S10, 0.457-mm diameter, 50.8 mm long; V&P Scientific). One microliter of oleic acid (400 uM) was added, and the plate was lidded with stainless steel rubber gasket lined lids containing pinholes. […] Fluorescence was detected by excitation of the fluorophores with a 488-nm laser on an Acumen Explorer (TTP Lab Tech). The total intensity in channel 2 (500-530 nm) reflected lipid droplet accumulation. Cells were detected using channel 3 (575-640 nm) with 5-um width and 100-um depth filters. The ratio of the number of objects in PMT channel 2 over the number of objects in PMT channel 3 was also calculated. Percent activity was computed relative to an internal control (100% inhibited lipid droplet deposition due to the presence of 20 uM Triacsin C), which was added to 32 wells/plate.
# On the % scale 0 is the no-effect control and ±100 the full control effect; potency means the concentration at half of the fitted maximal effect.
SMILES,"lipid storage change, negative = inhibition",Potency
O=C1Nc2ccccc2Nc2ncccc21,inconclusive: 59%,–
CS(=O)(=O)N1CCC(C(=O)NCc2ccco2)CC1,–,"inconclusive: 32.6 µM [falling, single point]"
C=CCn1c(SCC(=O)NC(=O)Cc2ccccc2)nc2ccccc2c1=O,–,"inconclusive: 32.6 µM [falling, single point]"
O=C(Cn1ccc2ccccc2c1=O)NCCC(=O)Nc1ccc(F)cc1F,inconclusive: 191%,–
Cc1cc2c(c(=O)o1)C1O[C@](c3ccsc3)(Cc3cc(C#N)ccc31)O2,inconclusive: 49% [at 9.22 µM],–
NS(=O)(=O)c1ccc(-n2cccc2C=O)cc1,–,"inconclusive: 0.291 µM [falling, partial curve]"
C=CCNC(=O)c1onc(CSc2cccc(OC)c2)c1C(=O)NCC=C,inconclusive: 25.5%,–
N#Cc1ccsc1NC(=O)CCc1ccccc1,inconclusive: 10.3%,–
CCOC(=O)c1[nH]c2ccc(OC)cc2c1NC(=O)c1nonc1C,inconclusive: 66.6%,–
CCOC(=O)c1sc(NC(=O)CCc2ccc(OC)cc2)nc1C,inconclusive: 3.93%,–
CCC(C)NC(=O)C1CCN(S(=O)(=O)c2cc([N+](=O)[O-])ccc2Cl)CC1 (stereo unspecified),–,"inconclusive: 25.9 µM [activator, single point]"
O=C(COC(=O)Cn1cc(C(F)(F)F)ccc1=O)Nc1ccc(Br)cc1F,inconclusive,–
O=C(CCNC(=O)c1ccccc1Cl)Nc1cccc(S(=O)(=O)N2CCOCC2)c1,–,"inconclusive: 1.16 µM [falling, full curve]"
COc1ccccc1N1CCN(C(=O)CSc2nc3ccccc3nc2N2CCCCC2)CC1,–,"inconclusive: 32.6 µM [falling, single point]"
COc1cc(C(=O)Nc2cccnc2)cc(OC)c1OC,inconclusive: 22.9%,–
NS(=O)(=O)c1ccc(CCNC(=O)CCC(=O)c2cccs2)cc1,–,"inconclusive: 0.13 µM [activator, full curve, poor fit]"
CC(=O)N1c2ccc(S(=O)(=O)NCCc3ccc(Cl)cc3)cc2CC1C (stereo unspecified),inconclusive: -18.1%,–
CS(=O)(=O)NCc1ccc(C(=O)O)cc1,inconclusive: -2.45%,–
Cc1ccc2cc(C#N)c(N3CCCN(C(=O)C4CCCO4)CC3)nc2c1C (stereo unspecified),–,"inconclusive: 0.103 µM [falling, full curve, poor fit]"
Cc1ccc(C(=O)CSc2nc3ccc(C(=O)NCCN4CCCCC4)cc3c(=O)[nH]2)cc1,inconclusive: 15.2%,–
CCOC(=O)CSc1nnc(CCc2nc3ccccc3[nH]2)n1C,inconclusive: -82.4%,–
COc1ccc(S(=O)(=O)N2CCN(CC(=O)NCCc3cccs3)CC2)cc1,inactive: 1.97%,–
O=C(O)c1ccc2nc(-c3ccccc3)c(-c3ccccc3)nc2c1,inactive: -8.03%,–
CC(C(=O)c1ccc(-c2ccccc2)cc1)[n+]1cccc(Br)c1 (stereo unspecified),inconclusive: -44.3%,–
CCOC(=O)c1cccc(-n2c(C)nc3ccccc3c2=O)c1,inconclusive: -18.3%,–
O=C(CSc1ccc2ccccc2n1)Nc1ccc(N2CCOCC2)cc1,inconclusive: -2.6%,–

# Full records, quoted from the list. Values in the order: lipid storage change, negative = inhibition | Potency
# CCOC(=O)CSc1nnc(CCc2nc3ccccc3[nH]2)n1C is listed with inconclusive: -82.4% | –
# CCOC(=O)c1cccc(-n2c(C)nc3ccccc3c2=O)c1 is listed with inconclusive: -18.3% | –
# NS(=O)(=O)c1ccc(CCNC(=O)CCC(=O)c2cccs2)cc1 is listed with – | inconclusive: 0.13 µM [activator, full curve, poor fit]

# The list continues:

SMILES,"lipid storage change, negative = inhibition",Potency
COc1ccc(CCNC(=O)CSc2nnc(C(C)N(C)C)n2Cc2ccccc2)cc1OC (stereo unspecified),inconclusive: 23.5%,–
CCOc1ccc(N2CC(C(=O)N/N=C/c3sccc3C)CC2=O)cc1 (stereo unspecified),inconclusive: 11.3%,–
CCOc1cc(C(=O)N(C)CC(=O)Nc2cccc(F)c2)ccc1OCC(=O)N1CCCCC1,inconclusive,–
CC(C)N(C(=O)Cc1ccccc1[N+](=O)[O-])C(C)C,–,"inconclusive: 29.1 µM [falling, single point]"
CCCCN(C)C1CCN(C(=S)Nc2ccc(OC)cc2)CC1,inconclusive: 0.705%,–
COc1cc(-c2nnc(-c3ccc(S(=O)(=O)c4ccccc4)cc3)o2)cc(OC)c1OC,–,"inconclusive: 5.8 µM [rising, partial curve]"
CN1CCCCc2c1nc1c(c2N)CCCC1,inconclusive: -2%,–
CC1=C(C(=O)OC2CCCCC2)C(c2ccccc2Br)NC(=O)N1 (stereo unspecified),inconclusive: -44%,–
Cc1cc(NCCCN2CCOCC2)n2ncc(-c3ccc(Cl)cc3)c2n1,inconclusive: 36.4%,–
CCC(=O)c1c(NCCc2ccccc2)cc(C)oc1=O,–,"inconclusive: 0.0052 µM [cytotoxic, full curve, poor fit]"
CNC(=S)N1CCN(c2nc(-c3ccc(Cl)cc3)cs2)CC1,–,"inconclusive: 32.6 µM [falling, single point]"
CCOc1ccc(CN(C)C(=O)CNC(=O)c2ccc3ccccc3c2)cc1OC,–,"inconclusive: 0.58 µM [activator, single point]"
Cc1noc(C)c1COC(=O)C1CCN(S(=O)(=O)c2ccc(F)cc2)CC1,–,"inconclusive: 6.51 µM [activator, single point]"
Clc1ccc(OCCCc2nc(-c3ccncc3)no2)c(Cl)c1,inconclusive: -18.2%,–
COc1ccc2c(c1)OC[C@H]1[C@H]2N2C(=O)CN(C)C(=O)[C@@]2(C)[C@H]1c1ccccc1,–,"inconclusive: 0.0046 µM [activator, full curve, poor fit]"
Cn1c(=S)c2[nH]c(SCCN3CCCC3)nc2n(C)c1=O,inconclusive: 37.3%,–
O=C(Nc1ccc(Cl)cc1)/C(=C/c1cccc(O)c1)c1nc2ccccc2s1,–,"inconclusive: 29.1 µM [falling, single point]"
COc1cccc(OC)c1C(=O)NC(=O)Oc1c(F)cccc1F,inconclusive: 15.4%,–
CC(=O)N(C)c1ccc(NC(=O)Nc2ccccc2C)cc1,inconclusive: -7.34%,–
CC(=O)Oc1ccc(N2C(=O)c3cccc4c([N+](=O)[O-])ccc(c34)C2=O)cc1,–,"inconclusive: 14.6 µM [falling, partial curve, poor fit]"
CCc1c(O)nc(SCC(=O)Nc2nc3ccccc3s2)n(-c2ccc(C)cc2)c1=O,inconclusive: -6.41%,–
O=C(Cn1c2ccccc2c(=O)c2ccccc21)N/N=C/c1ccc(N2CCCC2)c([N+](=O)[O-])c1,–,"inconclusive: 6.51 µM [falling, single point]"
COc1cc(OC)cc(C(=O)Nc2ccc(S(=O)(=O)N(C)C)cc2)c1,inconclusive: 18.2%,–
CCCc1nnc(SCC(=O)Nc2ccccc2Cl)n1CC1CCCO1 (stereo unspecified),inconclusive: -62.1%,–
Cc1ccc(NC(=O)[C@H](NC(=O)[C@@H]2Cc3ccccc3CN2)c2ccccc2)cc1,–,"inconclusive: 5.17 µM [activator, full curve]"
Cc1ccc(SCC(=O)Nc2cccc(NC(=O)c3ccco3)c2)cc1,inconclusive: 23.2%,–

SMILES,"lipid storage change, negative = inhibition",Potency
Cc1nn(C)cc1-c1csc(N)n1,inactive: -5.77%,–
O=C(c1ccc(Br)c([N+](=O)[O-])c1)N1CCN(Cc2ccccc2)CC1,inconclusive: -29.6%,–
O=C(Cn1[nH]c(=O)c2ccccc2c1=O)OCC(=O)N1CCc2ccccc2C1,inconclusive: 73.7%,–
O=c1c(CN2CCN(Cc3ccccc3F)C(CCO)C2)coc2ccccc12 (stereo unspecified),inconclusive: 19.5%,–
Cc1ccccc1S(=O)(=O)c1cc2ccccc2nc1N,inconclusive: 10.5%,–
CCOc1ccc(CCNC(=O)c2cccc3c2C(=O)N(CCOC)C3)cc1OCC,inconclusive: -6%,–
CSc1ccc(NC(=O)N2CCC(C(=O)c3ccc(F)cc3)CC2)cc1,inconclusive: 10.4%,–
CC1=C(C(=O)Nc2ccccc2Cl)C(c2ccc(N(C)C)cc2)NC(=O)N1 (stereo unspecified),inconclusive: 19.4%,–
COc1ccc(NC(=O)CCCC(=O)NCCc2ccc(OC)c(OC)c2)cc1,inconclusive: -5.99%,–
COc1ccc(-c2nsc3c(N4CCCC4)ncnc23)cc1,–,"inconclusive: 2.59 µM [activator, full curve]"
Cc1ccc2c(c1)N(CC(=O)N1CCCCC1C)C(=O)CO2 (stereo unspecified),–,"inconclusive: 0.116 µM [activator, single point]"
Cc1ccc(NC(=S)NNC(=O)c2nnn(-c3ccccc3)c2C)cc1,–,"inconclusive: 0.164 µM [activator, full curve, poor fit]"
COC(=O)c1ccc(CO/N=C/c2ccc(OC)cc2OC)cc1,inconclusive: 23.8%,–
COCCOC(=O)C1=C(C)NC(=O)NC1c1c(F)cccc1Cl (stereo unspecified),inconclusive: 19.5%,–
CCOc1ccc(S(=O)(=O)Nc2ccc(C(=O)N3CC(C)OC(C)C3)cc2)cc1 (stereo unspecified),inconclusive: 32.6%,–
CCOC(=O)c1c(NC(=O)COC)sc(C(C)=O)c1C,inconclusive: 123%,–
O=C(c1ccccc1)N1CCN(c2ncnc3c2cnn3-c2ccccc2)CC1,inactive: -12.6%,–
CN1CCN(CC(=O)NN(Cc2ccccc2)c2ccccc2)CC1,–,"inconclusive: 4.61 µM [falling, full curve, poor fit]"
CCOc1ccc(C(=O)NCC(=O)OCc2c(F)cccc2Cl)cc1,–,"inconclusive: 0.366 µM [activator, full curve]"
CSCC[C@H](NC(=O)C1CCN(S(=O)(=O)c2ccc(C)cc2)CC1)C(=O)NCC1CCCO1 (stereo partly specified),inconclusive: 9.7%,–
COc1ccc(-n2c(COc3ccc4c(c3)OCO4)nnc2SCC(=O)O)cc1,–,"inconclusive: 16.4 µM [falling, single point]"
COc1cc2c(cc1NC(=O)COC(=O)[C@@H](NS(=O)(=O)c1cccc(Cl)c1)C(C)C)oc1ccccc12,–,"inconclusive: 32.6 µM [falling, single point]"
Cc1ccc(C2c3[nH]c4ccccc4c3C[C@H]3C(=O)N(c4ccccc4C(=O)N4CCC[C@@H]4C(=O)O)C(=O)N23)cc1 (stereo partly specified),inconclusive: 6.26%,–
CCN1CCN(C(=O)CN(CCc2ccccc2)S(C)(=O)=O)CC1,–,"inconclusive: 29.1 µM [falling, single point]"

# Looked up above:
# Entry for Cc1nn(C)cc1-c1csc(N)n1 under lipid storage change, negative = inhibition: inactive: -5.77%
# Entry for Cc1ccc2c(c1)N(CC(=O)N1CCCCC1C)C(=O)CO2 (stereo unspecified) under Potency: inconclusive: 0.116 µM [activator, single point]
